Assay results reported in patent US20020076809A1.
These are yes or no findings as the source states them, for the method shown. Some binding calls cover weakened binding; strength is not graded here.

Chains of the proteins cited; added tags and fusions are not shown. Lines headed by an entry give the natural chain unless they say otherwise; changes in a name come on top.
UniProt O88944: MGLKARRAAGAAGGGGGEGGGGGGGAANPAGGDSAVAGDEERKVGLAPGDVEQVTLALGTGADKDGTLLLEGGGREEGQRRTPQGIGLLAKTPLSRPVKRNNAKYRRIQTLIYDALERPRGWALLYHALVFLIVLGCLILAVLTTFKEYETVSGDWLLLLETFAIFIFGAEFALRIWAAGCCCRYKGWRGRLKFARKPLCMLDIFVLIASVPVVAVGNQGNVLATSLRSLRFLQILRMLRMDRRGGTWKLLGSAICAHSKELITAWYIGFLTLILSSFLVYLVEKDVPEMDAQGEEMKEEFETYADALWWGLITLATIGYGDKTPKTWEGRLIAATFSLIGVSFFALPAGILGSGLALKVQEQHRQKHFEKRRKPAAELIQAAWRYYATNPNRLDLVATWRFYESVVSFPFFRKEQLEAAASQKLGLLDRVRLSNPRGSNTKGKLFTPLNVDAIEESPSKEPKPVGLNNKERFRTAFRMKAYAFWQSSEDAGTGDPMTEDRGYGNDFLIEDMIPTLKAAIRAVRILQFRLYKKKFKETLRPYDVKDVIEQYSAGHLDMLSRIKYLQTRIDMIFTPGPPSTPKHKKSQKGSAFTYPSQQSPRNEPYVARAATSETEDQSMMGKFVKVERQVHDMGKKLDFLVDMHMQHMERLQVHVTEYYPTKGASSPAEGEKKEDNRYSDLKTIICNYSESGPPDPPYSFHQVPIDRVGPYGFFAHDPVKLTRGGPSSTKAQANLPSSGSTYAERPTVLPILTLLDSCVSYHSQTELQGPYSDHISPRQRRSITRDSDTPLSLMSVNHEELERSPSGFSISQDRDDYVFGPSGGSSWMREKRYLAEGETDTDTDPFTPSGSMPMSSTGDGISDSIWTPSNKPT
UniProt Q9NR82: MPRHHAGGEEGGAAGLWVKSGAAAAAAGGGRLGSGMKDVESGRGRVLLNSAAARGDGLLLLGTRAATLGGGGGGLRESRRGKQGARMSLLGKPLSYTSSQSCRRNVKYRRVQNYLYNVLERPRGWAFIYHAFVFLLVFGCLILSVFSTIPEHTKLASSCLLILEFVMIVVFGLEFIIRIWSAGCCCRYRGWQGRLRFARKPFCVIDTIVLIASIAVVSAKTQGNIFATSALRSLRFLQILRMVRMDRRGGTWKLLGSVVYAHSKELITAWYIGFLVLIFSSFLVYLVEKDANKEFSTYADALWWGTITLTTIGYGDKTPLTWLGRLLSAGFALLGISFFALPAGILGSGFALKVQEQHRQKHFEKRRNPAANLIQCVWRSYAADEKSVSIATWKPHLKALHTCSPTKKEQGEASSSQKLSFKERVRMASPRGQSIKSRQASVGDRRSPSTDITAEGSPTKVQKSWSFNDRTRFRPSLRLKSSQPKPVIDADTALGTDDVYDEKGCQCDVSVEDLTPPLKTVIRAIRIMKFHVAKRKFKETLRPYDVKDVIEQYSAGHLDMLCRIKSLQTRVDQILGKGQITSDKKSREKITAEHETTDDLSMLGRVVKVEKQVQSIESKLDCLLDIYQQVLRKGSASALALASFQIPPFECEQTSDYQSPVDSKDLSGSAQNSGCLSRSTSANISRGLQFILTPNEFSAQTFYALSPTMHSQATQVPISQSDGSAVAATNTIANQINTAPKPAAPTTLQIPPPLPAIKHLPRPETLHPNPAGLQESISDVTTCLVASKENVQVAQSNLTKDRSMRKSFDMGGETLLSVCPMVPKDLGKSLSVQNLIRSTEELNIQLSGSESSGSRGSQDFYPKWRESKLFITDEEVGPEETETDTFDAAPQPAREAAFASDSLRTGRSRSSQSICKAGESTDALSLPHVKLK

Target: rKCNQ3 (GenBank accession number AF087454) (rat (printed only as the prefix r in rKCNQ3)) (UniProt O88944)
Assay: inferred from two-electrode voltage clamp of Xenopus oocytes coexpressing both subunits; no direct binding assay

- binding: binds
Substance: human potassium channel KCNQ5 (from UniProt Q9NR82 1-932)
